Test results taken from PubChem BioAssay AID1671190 (National Center for Advancing Translational Sciences (NCATS), 2021).
Among all 580,000 compounds or so, about 6,100 (1.1%) were called active. The inconclusive results got no clear call from the source; some entries with a clear call stand among them for comparison. Calls come from the whole dose curve; as a rule, active = well fitted inhibition curve with a large enough effect; inconclusive = small, poorly fitted or top-dose-only effect, or another doubt; inactive = no such curve, though single readings can be large or run the other way. A potency beside an inconclusive call is a rough fit, not a confirmed value.
Potency is the fitted concentration of half-maximal effect.

Amino acid sequences for entries named in this document (tags omitted). A change or cut given only in a name is not applied to a line headed by its entry.
UniProt P18054: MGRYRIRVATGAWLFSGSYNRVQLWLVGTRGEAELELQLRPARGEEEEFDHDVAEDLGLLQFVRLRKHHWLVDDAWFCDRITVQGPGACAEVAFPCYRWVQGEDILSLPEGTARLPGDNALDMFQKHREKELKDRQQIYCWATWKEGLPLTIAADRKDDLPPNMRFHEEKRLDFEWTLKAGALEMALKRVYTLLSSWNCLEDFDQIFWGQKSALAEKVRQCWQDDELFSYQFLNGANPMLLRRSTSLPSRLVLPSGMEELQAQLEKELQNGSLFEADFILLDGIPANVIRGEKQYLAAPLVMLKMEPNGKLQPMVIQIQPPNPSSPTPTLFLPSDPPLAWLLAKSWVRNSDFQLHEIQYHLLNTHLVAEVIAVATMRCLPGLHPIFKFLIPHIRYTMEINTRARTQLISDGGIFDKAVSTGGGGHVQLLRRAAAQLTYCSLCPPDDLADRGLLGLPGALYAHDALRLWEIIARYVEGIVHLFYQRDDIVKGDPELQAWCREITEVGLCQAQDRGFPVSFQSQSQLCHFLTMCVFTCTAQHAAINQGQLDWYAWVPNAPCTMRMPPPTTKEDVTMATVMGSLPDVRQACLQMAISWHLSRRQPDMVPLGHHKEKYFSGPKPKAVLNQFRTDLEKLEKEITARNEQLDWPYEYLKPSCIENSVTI

Each molecule was assayed against Polyunsaturated fatty acid lipoxygenase ALOX12 (Homo sapiens) (UniProt P18054) (assay: Primary qHTS assay for inhibitors of human arachidonate 12S-lipoxygenase (ALOX12): Round 2). Conditions: purified 12hLO, xylenol orange hydroperoxide absorbance; series mostly up to 108 µM.
Procedure, shortened: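 Hydroperoxide product was detected by ferrous iron/xylenol orange as the 573 to 405 nm absorbance ratio. Arachidonic acid at 40 uM (final) was turned over for 30 min at room temperature by 150 nM human 12hLO, pH 7.0 Hepes buffer, after 15 min compound preincubation.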
With `Cc1cc2c(cc1C)NC(CC(=O)Nc1cccc(C)c1C)C(=O)N2` (centres undefined) the Potency was “inactive”. In the case of `COc1ccc(C(=O)Nc2nc3c(s2)C[C@@H]2[C@](C)(CO)[C@H](O)CC[C@@]2(C)[C@@H]3CC(=O)N2CCOCC2)cc1`, the Potency is reported as active: 89.1 µM. `CCOC(=O)c1c(-c2ccc(C)o2)csc1NC(=S)NC(=O)c1ccccc1Br` was tested, and the Potency was “inactive”. With `Cc1ccc2c(=O)cc(C(=O)Nc3sc4c(c3C#N)CCCC4)oc2c1` the Potency was “inactive”. With `COc1ccccc1CN(C)C(=O)c1cc(-c2cc(OC)c(OC)c(OC)c2)nc2ccccc12` the Potency was inconclusive: 100 µM [inhibitor, single point]. In the case of `COc1ccc(-c2csc(NC(=O)CN3C(=O)NC4(CCCC4)C3=O)n2)cc1OC`, the Potency is reported as “inactive”. With `Cc1ccc(-n2c(SCCN)nnc2-c2cccc(C)c2)cc1` the Potency was “inactive”. `Cc1ccc(S(=O)(=O)c2nc(-c3ccccc3)oc2NCCN2CCOCC2)cc1` was tested, and the Potency was inconclusive: 35.5 µM [inhibitor, partial curve, poor fit]. With `O=C(NC1CCCCC1)/C(=C/c1ccco1)c1ccccc1` the Potency was inconclusive: 39.8 µM [inhibitor, partial curve, poor fit]. For `O=C(NCCCN1CCOCC1)c1ccccc1N1C(=O)[C@@H]2Cc3c([nH]c4ccccc34)C(c3cccc(Cl)c3)N2C1=O` (some centres undefined), the Potency was “inactive”. With `N#CCCN(CCC#N)S(=O)(=O)c1ccc(C(=O)Nc2nc(-c3ccccc3)c(C(=O)c3ccccc3)s2)cc1` the Potency was “inactive”. For `CCOC(=O)c1cnc2c(Cl)c(Cl)ccc2c1Nc1ccc(N(C)C)cc1`, the Potency was inconclusive: 5.01 µM [inhibitor, full curve, poor fit]. In the case of `O=C(N1CCOCC1)C1(c2ccc(Cl)cc2)CCOCC1`, the Potency is reported as inconclusive: 112 µM [inhibitor, partial curve, poor fit]. With `COc1ccc(CSCCNC(=S)Nc2ccccc2)cc1Cl` the Potency was inconclusive: 50.1 µM [inhibitor, partial curve, poor fit]. `FC(F)(F)c1ccccc1-c1ccc2ncnc(NC3CC3)c2c1` was tested, and the Potency was inconclusive: 6.31 µM [inhibitor, full curve, poor fit]. `Cc1cc(NS(=O)(=O)c2ccc(NC(=S)NC(=O)c3ccc(Br)cc3)cc2)no1` was tested, and the Potency was active: 10 µM. With `Cc1ccc2c(C(=O)O)cc(-c3ccncc3)nc2c1C` the Potency was inconclusive: 56.2 µM [inhibitor, partial curve, poor fit]. In the case of `CN1c2cccc3cccc(c23)N(C)C1c1cccs1`, the Potency is reported as inconclusive: 7.08 µM [inhibitor, full curve, poor fit]. In the case of `Fc1cccc(F)c1CSc1nc2ccccc2[nH]1`, the Potency is reported as “inactive”.
